Record: PubChem BioAssay AID504808 (Drosophila RNAi Screening Center, 2011)

Assay: 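Chromatin factors that keep E2F targets switched off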 (primary screen)
Cells: Drosophila S2 cells
Reagents: long dsRNA against Drosophila genes
Read-out: 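Dual luciferase plate measurements; E2F-specific signal taken as firefly over Renilla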
Reading the numbers: E2F firefly: higher = more E2F reporter activity; Renilla normaliser: higher = more normaliser reporter signal
Call rule: 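Called active if the normalised E2F reporter went up by over 50%; the cutoff is arbitrary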
The deposit covers about 21,000 reagents; this is a random part of those that have a named target and a result. Over the whole deposit, 18 (0.084%) were called active. 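Raw counts without plate normalisation, one of two replicates; the ratio scores behind the calls were not deposited.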 A plus sign joins genes that one reagent is predicted to hit. The record does not give: the amount of reagent, the time to read-out.

Knock-down of scrt [DRSC08736] gave: E2F firefly, rep 1 = 66336; Renilla normaliser, rep 1 = 3467; inactive. Against CenG1A [DRSC02538], the entry reads E2F firefly, rep 1 = 96585; Renilla normaliser, rep 1 = 4314; inactive. After knock-down of CenG1A [DRSC03505], the screen gave E2F firefly, rep 1 = 1.02e5; Renilla normaliser, rep 1 = 4298; inactive. Against CenG1A [DRSC03506], the entry reads E2F firefly, rep 1 = 98155; Renilla normaliser, rep 1 = 4290; inactive. eIF3c [DRSC06905] gave E2F firefly, rep 1 = 1.11e5; Renilla normaliser, rep 1 = 5535; inactive. Manf [DRSC14091] gave E2F firefly, rep 1 = 65568; Renilla normaliser, rep 1 = 3379; inactive.

For Nup153 [DRSC19904] the deposit lists E2F firefly, rep 1 = 86584; Renilla normaliser, rep 1 = 124; inactive. Or83c [DRSC12359] scored E2F firefly, rep 1 = 1.24e5; Renilla normaliser, rep 1 = 6450; inactive. After knock-down of RhoGAP100F [DRSC15409], the screen gave E2F firefly, rep 1 = 1772; Renilla normaliser, rep 1 = 932; inactive.

Single entries from above.
Under “call”, Manf [DRSC14091] is entered as inactive
For “E2F firefly, rep 1”, CenG1A [DRSC03506] has 98155
eIF3c [DRSC06905], Renilla normaliser, rep 1 = 5535

Further records follow:
For CG3880 [DRSC04428], the values are E2F firefly, rep 1 = 1.09e5; Renilla normaliser, rep 1 = 4545; inactive. Silencing of CG5355 [DRSC02844] resulted in: E2F firefly, rep 1 = 80810; Renilla normaliser, rep 1 = 4128; inactive. sra [DRSC17015] gave E2F firefly, rep 1 = 83452; Renilla normaliser, rep 1 = 5728; inactive. Against CG6763 [DRSC16110], the values are E2F firefly, rep 1 = 1.07e5; Renilla normaliser, rep 1 = 6546; inactive. Silencing of ball [DRSC14145] came out at: E2F firefly, rep 1 = 1.29e5; Renilla normaliser, rep 1 = 5987; inactive. Silencing of CG9344 [DRSC04541] gave: E2F firefly, rep 1 = 93160; Renilla normaliser, rep 1 = 4177; inactive.

Silencing of sel [DRSC06232] came out at: E2F firefly, rep 1 = 83992; Renilla normaliser, rep 1 = 3581; inactive. After knock-down of CG33090 [DRSC01908], the record shows E2F firefly, rep 1 = 78999; Renilla normaliser, rep 1 = 3659; inactive. Tpi [DRSC16888] showed E2F firefly, rep 1 = 2142; Renilla normaliser, rep 1 = 944; inactive. Knock-down of CG18139 (retired record) + Hmx [DRSC15307] gave: E2F firefly, rep 1 = 94369; Renilla normaliser, rep 1 = 4909; inactive.
